Here are results for 2 molecules from PMC6449940, “The Cdc42 effectors Gic1 and Gic2 regulate polarized post-Golgi secretion” (Cell & Bioscience, 2019).

Chains of the proteins cited; added tags and fusions are not shown.
UniProt P38261: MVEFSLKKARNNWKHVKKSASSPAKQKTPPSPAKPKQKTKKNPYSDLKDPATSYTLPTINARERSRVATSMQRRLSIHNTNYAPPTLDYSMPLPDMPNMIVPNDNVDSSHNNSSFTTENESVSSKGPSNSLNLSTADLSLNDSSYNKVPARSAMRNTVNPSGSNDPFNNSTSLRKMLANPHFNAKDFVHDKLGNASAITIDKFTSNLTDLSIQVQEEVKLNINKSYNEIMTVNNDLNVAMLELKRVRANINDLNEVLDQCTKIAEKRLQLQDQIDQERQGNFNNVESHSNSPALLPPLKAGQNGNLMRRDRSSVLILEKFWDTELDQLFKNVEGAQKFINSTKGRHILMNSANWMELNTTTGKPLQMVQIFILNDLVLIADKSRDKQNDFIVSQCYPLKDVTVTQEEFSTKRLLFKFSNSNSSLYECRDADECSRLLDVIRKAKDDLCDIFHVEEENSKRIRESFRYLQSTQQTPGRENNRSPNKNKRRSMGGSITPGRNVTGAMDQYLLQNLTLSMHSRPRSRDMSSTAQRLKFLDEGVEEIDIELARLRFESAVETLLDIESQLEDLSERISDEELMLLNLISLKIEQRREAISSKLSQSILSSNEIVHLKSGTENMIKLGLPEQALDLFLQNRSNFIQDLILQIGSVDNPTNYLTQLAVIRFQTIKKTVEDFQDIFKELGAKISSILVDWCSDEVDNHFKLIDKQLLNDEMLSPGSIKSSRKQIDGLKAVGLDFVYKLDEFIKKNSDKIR

This test has as its target T1, GFP-tagged Gic2 (S. cerevisiae (budding yeast)) (UniProt Q06648).
T1 sequence: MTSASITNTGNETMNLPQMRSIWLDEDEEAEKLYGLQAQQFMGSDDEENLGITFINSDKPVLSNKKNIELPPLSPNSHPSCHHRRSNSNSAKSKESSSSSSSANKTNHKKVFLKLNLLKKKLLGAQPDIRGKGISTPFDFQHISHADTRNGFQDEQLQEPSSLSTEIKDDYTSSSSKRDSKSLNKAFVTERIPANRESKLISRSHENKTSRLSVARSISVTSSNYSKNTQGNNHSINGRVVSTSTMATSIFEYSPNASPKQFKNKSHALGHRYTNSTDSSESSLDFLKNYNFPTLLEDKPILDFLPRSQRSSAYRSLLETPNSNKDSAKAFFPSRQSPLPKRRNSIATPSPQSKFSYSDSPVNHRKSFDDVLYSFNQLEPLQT
The test can be described thus: co-IP; yeast lysates; immunoprecipitation of Gic2-GFP with polyclonal anti-GFP antibody, blot with anti-myc monoclonal antibody.

No constants are given. Whether binding was seen depends on the method and setting. In cells and extracts the contact can be indirect. Some binding calls cover weakened binding; strength is not graded here. Sequences can lack the tags named with a protein.

As to Exo84-myc (from UniProt P38261 1-753), the binding result was “binds”.

B1: Sec8-myc (protein, UniProt P32855 1-1065)
chain: MDYLKPAQKGRRRGLSINSLSETQQSAMNSSLDHLQNDLNRINLQWNRILSDNTNPLELALAFLDDTSVGLGHRYEEFNQLKSQIGSHLQDVVNEHSQVFNTNVASYGKAVSSIMQAQEQTLNLKNCLKEANEKITTDKGSLQELNDNNLKYTKMIDVLVNIEELLQIPEKIEENIRKENFHQVQILLERGFILMNNKSLKTVEILKPINQQLELQEHLLFNNLIEEIHDIMYSKSNKTNFTRVTNNDIFKIISISHNGFTSLENYLYNIVNIDIMEHSKTINKNLEQFIHDQSLNKGNIMLQENAATQAPLAPSRNQENEGFNRIGFLLKTINNINKLPVAFNIITERAKEEIHNIIVKSTESIRSKHPSLLKMATSLKNDNHFGLPVQDILSIILRECFWEIFLKLLYAIQCHRAIFEMSNILQPTSSAKPAFKFNKIWGKLLDEIELLLVRYINDPELISSNNGSIKPINGATNNAPTLPKRKNPKIFSLEYNIEDNSSVKDQAFELKALLKDIFPGFSVSSNMDLDSIYVKDESFEQDEPLVPPSVFNMKVILDPFLLFTQSTSTIVPSVLTQNTISSLTFFDDYMNKSFLPKIQMTMDYLFTVEVESNNPYALELSDENHNIFKTALDFQRLFYNLLNVFNTANTFREKISYCILDLLNHFYNYYLGLFNSLIGTSDRHLTRKIITAWLQNGILMDQEQKILNGDETLFHEESIELFKEIPHFYQAGKGLSKSDLFNNLTLDTILQFSASVLWILNWLPGLKKAINIDEVSQEPMLDADRLRSSWTFSESMDLNYSNPSSSPNSLGNLKILLDDKASKKFDETIDGFKTLKFKLITILRFNIRALCIYDIGSFFQNTKIWNMDVGSIELDQNIASLISELRRTESKLKQQLPEKEKNSIFIGLDIVNNYALIKGAKSIKVLNHNGIKKMLRNVNVLQHAYRNLSSEPSKINMNVTMNFYSLCGSSEAELFEYIKDNELPHCSVEDLKTILRLQFSEEMHRQLKRQSTSSTKGSIKPSNKRYTEALEKLSNLEKEQSKEGARTKIGKLKSKLNAVHTANEK
Regarding B1, the binding entry was “binds”.
